Ends that are not written are not given here.
What follows are sequences tested on colorectal tumour samples (assay: Re-detection of identified TUMAPs by ESI-LCMS in CRC tumour samples). Details: colon and rectum cancer samples and metastases.
Set-up: species or system human

In order of falling “Detected in % of analyzed samples” value:
1. ALFVRLLALA [TGFBI-001]  100%
2. ALSNLEVTL [Peptide C20-001]  100%
3. KIFDEILVNA [TOP-001]  87%
4. KLMDLDVEQL [PCN-001]  80%
5. ILAPVILYI [NOX-001]  67%
6. TPPIDAHTRNLLRNH (listed as Homo sapiens) [TGFBI-004]  33%
